These are yes or no findings as the source states them, for the method shown. A result given as binding can be weak or reduced; the word gives no strength.
Molecular target: MoMih1 (pGADT7-MoMih1, yeast two-hybrid fusion) (Magnaporthe oryzae) (UniProt G4N0K3)
Assay: two-hybrid

**Q.** “MoCdc28 (pGBKT7-MoCdc28, yeast two-hybrid fusion) (from UniProt G4MZ20)” was tested. Which binding did it give?
**A.** binds
